According to PMC7054999:
No constants are given. Whether binding was seen depends on the method and setting. Binding seen in cells or lysates may run through a third protein. Some results given as binding are weak or reduced against the parent protein; the word gives no strength.

Protein sequences, listed by entry. Tags and fused reporters are not part of them.
UniProt P06730: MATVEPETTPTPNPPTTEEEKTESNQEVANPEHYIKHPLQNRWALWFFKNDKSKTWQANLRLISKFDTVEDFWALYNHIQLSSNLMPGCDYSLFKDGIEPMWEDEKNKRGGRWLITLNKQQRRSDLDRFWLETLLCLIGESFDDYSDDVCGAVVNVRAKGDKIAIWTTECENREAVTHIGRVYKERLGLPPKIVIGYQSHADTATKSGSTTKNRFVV
UniProt P55884: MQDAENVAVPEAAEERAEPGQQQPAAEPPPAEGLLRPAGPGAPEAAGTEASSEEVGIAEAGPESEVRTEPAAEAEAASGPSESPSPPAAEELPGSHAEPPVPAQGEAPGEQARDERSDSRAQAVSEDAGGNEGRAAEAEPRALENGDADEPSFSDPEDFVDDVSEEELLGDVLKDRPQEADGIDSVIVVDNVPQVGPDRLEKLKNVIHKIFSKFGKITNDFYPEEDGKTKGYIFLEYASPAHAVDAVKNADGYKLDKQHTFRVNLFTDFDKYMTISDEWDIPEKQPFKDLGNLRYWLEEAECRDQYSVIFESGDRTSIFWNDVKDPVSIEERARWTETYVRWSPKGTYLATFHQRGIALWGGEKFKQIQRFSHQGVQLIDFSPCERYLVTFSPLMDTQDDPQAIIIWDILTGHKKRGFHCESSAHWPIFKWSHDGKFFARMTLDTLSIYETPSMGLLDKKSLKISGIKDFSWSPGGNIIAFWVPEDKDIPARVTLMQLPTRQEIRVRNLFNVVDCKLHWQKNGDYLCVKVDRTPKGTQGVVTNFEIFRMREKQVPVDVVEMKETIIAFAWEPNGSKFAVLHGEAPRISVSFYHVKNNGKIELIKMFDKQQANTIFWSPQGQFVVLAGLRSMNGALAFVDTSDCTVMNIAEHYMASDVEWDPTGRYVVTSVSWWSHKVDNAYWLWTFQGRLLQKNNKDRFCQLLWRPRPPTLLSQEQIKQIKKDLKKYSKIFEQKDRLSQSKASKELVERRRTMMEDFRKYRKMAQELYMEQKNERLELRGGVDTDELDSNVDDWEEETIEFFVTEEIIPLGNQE

Key:
[1] = biological target: eIF4E (human (endogenous in HeLa)) (UniProt P06730); assay: pull-down; cap pulldown: cytoplasmic lysates of HeLa cells treated with DMSO or Ro3306 (10 µM, 4 or 16 h); γ-aminophenyl-m7GTP agarose beads overnight at 4°C, eIF4E held by the cap analogue; 150 mM NaCl, 1 mM EDTA, NP-40 buffers; Western blot
[2] = biological target: eIF4E (human (endogenous in HeLa)) (UniProt P06730); assay: pull-down; cap pulldown as a1, cytoplasmic lysates of HeLa cells treated with Torin1 (200 nM, mTORC1 inhibition); γ-aminophenyl-m7GTP agarose beads; Western blot

## eIF3B (from UniProt P55884 1-814)
[1]
  binding: binds
[2]
  binding: no binding (condition: cells treated with Torin1 (200 nM))
